These are yes or no findings as the source states them, for the method shown. In cells and extracts the contact can be indirect. Some results given as binding are weak or reduced against the parent protein; the word gives no strength.
Experiments:
[1] = target: myc-6x histidine tagged LRRK2 (leucine-rich repeat kinase 2), wild type (human) (UniProt Q5S007); experiment: pull-down; lysates of SH-SY5Y cells overexpressing myc-6x histidine tagged LRRK2 loaded on Ni-NTA agarose overnight at 4 °C; washed with 1% Triton X-100 and 20, 30, 50 mM imidazole in PBS; eluted RAB35 detected by western blotting
[2] = target: HA-tagged human RAB35 (human) (UniProt Q15286); experiment: co-IP; cell lysates incubated with 3F10 antibody against the HA tag (or control IgG) overnight at 4 °C, protein A/G agarose 2 h at 4 °C, RIPA washes; eluted LRRK2 detected by western blotting

Amino acid sequences for entries named in this document (tags omitted).
UniProt Q5S007: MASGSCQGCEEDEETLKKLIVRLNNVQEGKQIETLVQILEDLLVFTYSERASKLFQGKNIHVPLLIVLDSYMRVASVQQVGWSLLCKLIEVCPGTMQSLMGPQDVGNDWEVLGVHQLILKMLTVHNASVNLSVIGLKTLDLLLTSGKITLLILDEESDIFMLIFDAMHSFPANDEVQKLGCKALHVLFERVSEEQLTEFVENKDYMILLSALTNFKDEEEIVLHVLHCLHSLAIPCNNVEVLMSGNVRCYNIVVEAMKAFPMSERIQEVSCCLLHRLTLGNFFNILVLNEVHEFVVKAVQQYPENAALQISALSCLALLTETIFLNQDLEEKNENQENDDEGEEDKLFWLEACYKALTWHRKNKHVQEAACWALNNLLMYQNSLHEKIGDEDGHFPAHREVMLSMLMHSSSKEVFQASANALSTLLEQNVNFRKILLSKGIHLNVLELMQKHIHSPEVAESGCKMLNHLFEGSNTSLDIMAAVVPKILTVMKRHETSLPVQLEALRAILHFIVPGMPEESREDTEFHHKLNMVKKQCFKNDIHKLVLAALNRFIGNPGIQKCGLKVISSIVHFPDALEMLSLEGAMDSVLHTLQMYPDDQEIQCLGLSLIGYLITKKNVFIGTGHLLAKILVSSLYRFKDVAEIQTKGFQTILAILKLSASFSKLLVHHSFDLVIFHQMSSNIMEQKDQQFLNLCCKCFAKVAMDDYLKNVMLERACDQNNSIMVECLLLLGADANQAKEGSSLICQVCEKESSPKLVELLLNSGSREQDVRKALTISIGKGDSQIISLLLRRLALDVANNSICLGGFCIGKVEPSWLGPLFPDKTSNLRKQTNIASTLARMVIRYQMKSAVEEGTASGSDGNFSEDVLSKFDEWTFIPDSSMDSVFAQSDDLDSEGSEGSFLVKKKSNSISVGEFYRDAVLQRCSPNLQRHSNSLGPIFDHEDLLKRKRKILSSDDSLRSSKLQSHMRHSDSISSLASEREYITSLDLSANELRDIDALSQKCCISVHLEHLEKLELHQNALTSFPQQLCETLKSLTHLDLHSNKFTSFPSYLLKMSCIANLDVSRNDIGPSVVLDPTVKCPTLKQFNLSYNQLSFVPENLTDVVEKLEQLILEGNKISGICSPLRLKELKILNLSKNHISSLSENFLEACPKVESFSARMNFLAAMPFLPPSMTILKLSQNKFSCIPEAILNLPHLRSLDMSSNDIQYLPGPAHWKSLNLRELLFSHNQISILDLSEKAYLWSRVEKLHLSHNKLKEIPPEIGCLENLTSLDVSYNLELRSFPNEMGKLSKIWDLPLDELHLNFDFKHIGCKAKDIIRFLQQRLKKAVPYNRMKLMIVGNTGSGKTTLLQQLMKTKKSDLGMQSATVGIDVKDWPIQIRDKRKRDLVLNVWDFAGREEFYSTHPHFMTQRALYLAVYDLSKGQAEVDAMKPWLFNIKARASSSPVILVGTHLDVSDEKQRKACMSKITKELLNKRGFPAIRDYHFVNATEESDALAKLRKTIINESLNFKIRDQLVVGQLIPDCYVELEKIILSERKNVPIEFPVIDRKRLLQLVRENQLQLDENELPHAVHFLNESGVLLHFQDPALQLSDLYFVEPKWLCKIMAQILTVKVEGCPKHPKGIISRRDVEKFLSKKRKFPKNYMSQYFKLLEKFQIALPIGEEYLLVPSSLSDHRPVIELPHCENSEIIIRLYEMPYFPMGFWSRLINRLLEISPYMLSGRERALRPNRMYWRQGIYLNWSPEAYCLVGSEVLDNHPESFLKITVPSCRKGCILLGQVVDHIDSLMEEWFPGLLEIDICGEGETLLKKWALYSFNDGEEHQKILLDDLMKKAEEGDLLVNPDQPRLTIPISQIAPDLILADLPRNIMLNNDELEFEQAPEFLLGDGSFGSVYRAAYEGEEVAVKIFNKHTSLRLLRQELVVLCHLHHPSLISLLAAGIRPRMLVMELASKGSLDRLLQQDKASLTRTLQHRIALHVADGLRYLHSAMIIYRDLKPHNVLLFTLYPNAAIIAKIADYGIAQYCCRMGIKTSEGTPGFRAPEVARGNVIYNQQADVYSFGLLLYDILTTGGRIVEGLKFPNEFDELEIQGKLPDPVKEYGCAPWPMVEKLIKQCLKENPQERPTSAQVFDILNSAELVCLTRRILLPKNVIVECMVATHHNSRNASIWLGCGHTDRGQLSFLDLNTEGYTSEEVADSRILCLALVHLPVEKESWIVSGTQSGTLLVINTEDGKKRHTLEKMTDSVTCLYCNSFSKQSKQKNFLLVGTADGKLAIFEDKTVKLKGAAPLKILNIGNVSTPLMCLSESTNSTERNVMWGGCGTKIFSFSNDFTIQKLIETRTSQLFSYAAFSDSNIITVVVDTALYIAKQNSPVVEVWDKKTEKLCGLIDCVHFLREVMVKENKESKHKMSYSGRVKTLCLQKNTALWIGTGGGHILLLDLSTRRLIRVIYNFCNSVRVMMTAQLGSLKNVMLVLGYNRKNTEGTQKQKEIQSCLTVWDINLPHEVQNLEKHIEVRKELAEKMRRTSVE
UniProt Q15286: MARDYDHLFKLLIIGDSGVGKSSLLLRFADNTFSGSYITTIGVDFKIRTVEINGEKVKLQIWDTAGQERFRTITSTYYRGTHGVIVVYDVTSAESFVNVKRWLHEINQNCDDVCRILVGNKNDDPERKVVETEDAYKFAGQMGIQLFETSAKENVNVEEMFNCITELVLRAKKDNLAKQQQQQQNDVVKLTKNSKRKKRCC

Substance	binding [1]	binding [2]
HA-tagged human RAB35 (from UniProt Q15286 1-201)	binds	
myc-6x histidine tagged LRRK2 (leucine-rich repeat kinase 2), wild type (from UniProt Q5S007 1-2527) (enzyme)		binds

Source: paper PMC6110743
